{"sequences": {"note": "By UniProt entry, the sequences of proteins in these tests, tags left out.", "UniProt Q61990": "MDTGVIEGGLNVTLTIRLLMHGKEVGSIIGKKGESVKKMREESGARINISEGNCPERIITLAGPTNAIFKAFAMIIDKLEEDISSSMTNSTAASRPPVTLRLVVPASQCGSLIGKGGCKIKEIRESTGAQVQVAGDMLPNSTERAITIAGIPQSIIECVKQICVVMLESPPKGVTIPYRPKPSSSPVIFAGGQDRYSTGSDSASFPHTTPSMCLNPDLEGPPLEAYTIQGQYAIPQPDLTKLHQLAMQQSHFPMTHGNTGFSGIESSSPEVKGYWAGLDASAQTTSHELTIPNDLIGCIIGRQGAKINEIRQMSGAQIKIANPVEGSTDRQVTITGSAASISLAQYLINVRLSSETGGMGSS", "UniProt P63280": "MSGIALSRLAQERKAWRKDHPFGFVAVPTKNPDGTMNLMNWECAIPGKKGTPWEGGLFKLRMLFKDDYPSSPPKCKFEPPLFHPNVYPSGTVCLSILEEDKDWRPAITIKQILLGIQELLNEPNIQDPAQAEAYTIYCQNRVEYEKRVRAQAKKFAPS"}, "source": "paper PMC4569712", "key": {"[1]": {"target": "T1, Flag-tagged IRTKS (aa 400–514) (mouse) (UniProt Q9DBJ3)", "T1 sequence": "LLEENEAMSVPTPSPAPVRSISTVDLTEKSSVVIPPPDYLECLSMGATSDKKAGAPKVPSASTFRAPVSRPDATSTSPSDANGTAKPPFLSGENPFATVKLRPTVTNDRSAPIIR", "assay": "co-IP; MEF cells co-transfected with Flag-tagged truncations and the FL HA-tagged partner; IP with anti-Flag antibody"}, "[2]": {"target": "T2, IRTKS (endogenous, mouse macrophages) (mouse (endogenous in BMDMs and peritoneal macrophages)) (UniProt Q9DBJ3)", "T2 sequence": "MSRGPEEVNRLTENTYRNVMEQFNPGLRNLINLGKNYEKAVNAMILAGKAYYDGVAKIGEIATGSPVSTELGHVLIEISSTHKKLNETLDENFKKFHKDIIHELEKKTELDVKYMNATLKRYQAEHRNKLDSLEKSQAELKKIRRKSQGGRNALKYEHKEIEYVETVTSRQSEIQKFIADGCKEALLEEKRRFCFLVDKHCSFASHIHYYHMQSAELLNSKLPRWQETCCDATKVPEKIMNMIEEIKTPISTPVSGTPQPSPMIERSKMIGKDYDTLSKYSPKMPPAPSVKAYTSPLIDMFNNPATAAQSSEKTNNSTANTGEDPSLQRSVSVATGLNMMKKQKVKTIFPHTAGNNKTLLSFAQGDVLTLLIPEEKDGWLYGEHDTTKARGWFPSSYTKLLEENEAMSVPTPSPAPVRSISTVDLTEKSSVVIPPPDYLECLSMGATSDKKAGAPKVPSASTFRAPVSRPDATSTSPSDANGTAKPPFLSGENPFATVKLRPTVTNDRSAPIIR", "assay": "co-IP"}}, "note": "No constants are given. Whether binding was seen depends on the method and setting. In cells and extracts the contact can be indirect. Some results given as binding are weak or reduced against the parent protein; the word gives no strength. For part of these data: Tags and fused reporters may be left off the sequences shown."}
{"substance": "FL HA-tagged PCBP2 (from UniProt Q61990 1-362)", "values": [{"measurement": "binding", "setting": "[1]", "value": "binds"}]}
{"substance": "PCBP2 (endogenous, mouse macrophages) (from UniProt Q61990 1-362)", "values": [{"measurement": "binding", "setting": "[2]", "value": "binds"}]}
{"substance": "Ubc9 (endogenous, mouse peritoneal macrophages) (from UniProt P63280 1-158) (enzyme)", "values": [{"measurement": "binding", "setting": "[2]", "value": "binds"}]}
